The list shows a part of the results. These are further read-outs of the screen, such as a control signal, another cell line or another target. No call is given for them. Most of these compounds were active or inconclusive in the main read-out, so they are no random draw. Words in brackets tell the shape of the fitted curve; partial curves, single points and poor fits give uncertain potencies.
Test: qHTS Assay for Lipid Storage Modulators in Drosophila S3 Cells;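 as to cell number change: cells counted by Cell Tracker Red CMTPX staining in the red channel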
Details: BODIPY lipid droplet fluorescence, 18-24 h; for cell number change: measured here: cell count max response, cells fed with added oleic acid
Outline: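 Laser-scanning cytometry quantifies lipid droplet accumulation (500–530 nm total intensity; droplet/cell object ratio) in oleic acid-fed (400 uM added) Drosophila S3 cells treated with a concentration series. 20 uM Triacsin C defined 100% inhibition.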

[1] = measured here: lipid fluorescence (Fed channel) AC50, cells fed with added oleic acid
[2] = measured here: cell number channel AC50, cells fed with added oleic acid

Compound	cell number change [%]	AC50 [1]	AC50 [2]
Cn1c2c(c(=O)c3ccccc31)CCCC2	14.6	11.6 µM [rising, partial curve]	–
Cc1cccc(NC(=O)/C(=C/c2cccc([N+](=O)[O-])c2)NC(=O)c2cccs2)c1	-23.6	–	–
CCOP(=O)(OCC)c1nc(-c2ccccc2)oc1NCc1ccccc1	-50	0.731 µM [rising, full curve]	–
CCOC(=O)c1ccccc1NC(=O)COC(=O)C1CCCC1	-2.09	–	–
Cc1nn(-c2ccccc2)c(C)c1NC(=O)COC(=O)c1cc([N+](=O)[O-])ccc1NCCO	-20.3	10 µM [falling, partial curve]	–
CCN(CC)Cc1c(C(=O)N/N=C/c2ccc(OCc3ccccc3C)cc2)nnn1-c1nonc1N	127	29.1 µM [falling, single point]	29.1 µM [rising, single point]
CCc1nnc(NC(=O)CSc2nc3[nH]c(=O)cc(O)c3s2)s1	1.5	0.461 µM [rising, partial curve, poor fit]	–
CCC(C)(C)C1CCc2[nH]nc(C(=O)NCc3ccccn3)c2C1 (stereo not drawn)	-52.1	–	14.6 µM [falling, single point]
O=C(NC1CCCC1)C(c1cccnc1)N(Cc1ccccc1)C(=O)c1csnn1 (stereo not drawn)	–	29.1 µM [falling, single point]	–
O=C(CSc1nc2ccccc2c(=O)[nH]1)Nc1ccccc1C(F)(F)F	5.01	1.84 µM [falling, partial curve]	–
O=C(NCCc1nc2ccc(Cl)cc2[nH]1)C1CCC(=O)N(Cc2cccc(F)c2)C1 (stereo not drawn)	-21.7	16.4 µM [falling, single point]	–
CC1CCc2[nH]c3ccc(C(=O)N(C)CC(=O)Nc4ccccc4Br)cc3c2C1 (stereo not drawn)	–	1.3 µM [rising, partial curve]	1.3 µM [rising, partial curve]
CCOc1cc(S(=O)(=O)NCC2OCCc3ccccc32)c(OCC)cc1-n1cnnn1 (stereo not drawn)	-6.78	0.731 µM [falling, single point]	–
O=C(Nc1ccc2nc3n(c(=O)c2c1)CCCCC3)c1cc([N+](=O)[O-])ccc1F	-31.6	2.06 µM [falling, full curve]	13 µM [falling, single point]
COc1cc(C)c(Cl)c(C)c1S(=O)(=O)NCc1cccnc1	81.5	3.26 µM [rising, partial curve]	2.59 µM [rising, full curve]
COC(=O)c1ccccc1NC(=O)C1CCN(S(C)(=O)=O)CC1	–	–	4.61 µM [rising, single point]
Cc1ccc(NC(=O)c2nc[nH]c2C(=O)NCCCCCNC(=O)OC(C)(C)C)cc1	-57.6	0.116 µM [rising, full curve]	8.2 µM [falling, single point]
Cc1ccc(Cl)cc1N1CCN(c2cccc[n+]2C)CC1	11.1	0.00517 µM [falling, full curve, poor fit]	–
COc1cccc(/C=N/Nc2nnc(C)n2N)c1O	10.8	–	–
O=S(=O)(Nc1ccccc1Cl)c1cccc2nsnc12	-12.2	–	–

Compound	cell number change [%]	AC50 [1]	AC50 [2]
COc1ccc(C(=O)CN2Cc3ccccc3C2=N)cc1	17.9	23.1 µM [rising, partial curve]	–
O=C1NC(=O)/C(=C\c2ccccc2Oc2ccc(F)c(F)c2)S1	-2.19	2.59 µM [falling, single point]	–
Cc1cccc(OCCCOc2cccc3cccnc23)c1C	-45.5	23.1 µM [falling, single point]	29.1 µM [falling, single point]
CCN(CC(=O)Nc1c(F)cccc1F)C(=O)c1ccc(COc2ccccc2)cc1	25	20.6 µM [falling, single point]	–
CCNC(=S)N/N=C(\C)c1ccco1	0.678	0.00517 µM [rising, full curve, poor fit]	–
COc1ccc(NC(=O)CC(C)CC(=O)NCc2ccccc2)c(OC)c1 (stereo not drawn)	7.35	20.6 µM [rising, single point]	–
O=C(OCC(=O)c1ccc[nH]1)c1ccc2ccccc2n1	–	6.51 µM [falling, partial curve, poor fit]	–
COc1ccc(N(CC(=O)NC2CCCC2)C(=O)CCC(=O)Nc2nc(C)cs2)cc1OC	23.4	29.1 µM [rising, single point]	–
COc1ccc2[nH]c(C)c(CCNC(=S)Nc3cc(C)ccc3C)c2c1	29	1.3 µM [rising, full curve]	–
CCOC(=O)C1=C(C)NC(SC)=C(C#N)C1CC(C)C (stereo not drawn)	-2.81	6.51 µM [rising, partial curve, poor fit]	–
CC1CN(C2CCN(C(=O)COc3ccc(Cl)cc3)CC2)CC(C)O1 (stereo not drawn)	3.42	–	0.58 µM [rising, full curve, poor fit]
O=C(Nc1ncc([N+](=O)[O-])s1)c1ccccc1Br	-61.8	32.6 µM [falling, single point]	9.2 µM [falling, partial curve]
Cc1ccc(S(=O)(=O)NCC(=O)NC2CCCCCC2)cc1	13	0.366 µM [falling, partial curve, poor fit]	–
CC(C)[C@H](NC(=O)OCc1ccccc1)C(=O)OCC(=O)NC1(C#N)CCCC1	-6.93	29.1 µM [rising, single point]	–
Cc1ccc2c(nc3s/c(=C/c4cccs4)c(=O)n32)c1C	-22.3	14.6 µM [falling, partial curve, poor fit]	–
O=C(CN1CCCC1)Nc1ccccc1Sc1ccc(Cl)cc1	-30.1	10.3 µM [falling, partial curve]	9.2 µM [falling, partial curve]
COC(=O)c1c(NC(=O)c2nc3nc(C)cc(C(F)F)n3n2)sc2c1CCC2	0.909	4.61 µM [rising, partial curve]	–
C=CCOc1cccc(/C=N/NC(=O)CN(c2cc(Cl)ccc2OC)S(=O)(=O)c2ccc(C)c([N+](=O)[O-])c2)c1	27.1	2.06 µM [rising, partial curve, poor fit]	–
COP(=O)(OC)C(Nc1ccc(C)cc1)c1ccc([N+](=O)[O-])cc1 (stereo not drawn)	11.6	0.0058 µM [rising, full curve, poor fit]	–
CS(=O)(=O)c1ccc(N)c(SSc2cc(S(C)(=O)=O)ccc2N)c1	-84.8	0.0731 µM [falling, full curve, poor fit]	25.9 µM [falling, partial curve]

Compound	cell number change [%]	AC50 [1]	AC50 [2]
COc1ccc(-c2cc(C(=O)n3cnc4ccccc43)c3ccccc3n2)cc1	40.4	4.11 µM [rising, partial curve]	2.06 µM [rising, partial curve]
CCc1nnc(NC(=O)c2ccc(-c3cc(C(F)(F)F)ccc3Cl)o2)s1	-4.29	6.51 µM [falling, single point]	–
c1ccc(-c2cc(N3CCCCC3)c3ccccc3n2)cc1	-9.38	–	–
COc1ccc(CN2CCn3ncc(C(=O)Nc4ccccc4)c3C2=O)cc1	3.61	0.366 µM [falling, full curve]	–
Cc1ccc(C)c(S(=O)(=O)Nc2cc3c4c(c2)CC(=O)N4CCC3)c1	–	–	0.13 µM [rising, full curve, poor fit]
CCOc1ccc(N/N=C(/C#N)C(N)=O)cc1	-14.2	11.6 µM [falling, partial curve, poor fit]	–
O=C(CC1C(=O)NC2CCCCC2N1C(=O)c1ccc([N+](=O)[O-])cc1)Nc1ccccc1 (stereo not drawn)	-14.4	–	–
O=C(NNc1nc(-c2ccc(Br)cc2)cs1)c1ccco1	–	29.1 µM [falling, partial curve, poor fit]	–
CCOc1cc(C2c3c(n[nH]c3C)C(=O)N2c2ccc(C)cc2)ccc1O (stereo not drawn)	–	–	5.8 µM [falling, single point]
CCOC(=O)C1=C(CN2CCN(c3ccc(F)cc3)CC2)NC(=O)NC1c1cccs1 (stereo not drawn)	-20.7	1.84 µM [rising, partial curve, poor fit]	–
O=C(Oc1ccc(N2C(=O)CCC2=O)cc1)c1ccccc1Cl	19.8	0.651 µM [falling, full curve, poor fit]	–
Cc1cccc(C(=O)N/N=C2\CS(=O)(=O)N(C)c3ccsc32)c1	4.22	6.51 µM [rising, single point]	–
CCN(CC(=O)NCc1cccs1)C(=O)/C=C/c1cccc(OC)c1OC	18.5	–	–
Cn1c2c(c(=O)n3ncnc13)CCCC2	–	–	0.92 µM [falling, full curve]
C(=C(c1ccccc1)c1ccccc1)c1ccccn1	4.55	2.06 µM [falling, partial curve, poor fit]	1.46 µM [falling, partial curve, poor fit]
COc1cccc(C(c2sc3ncnn3c2O)N2CC(C)OC(C)C2)c1 (stereo not drawn)	–	0.326 µM [rising, full curve, poor fit]	2.91 µM [rising, partial curve, poor fit]
CC(=O)NC(Cc1ccccc1C)C(=O)NC1CCN(c2ncccc2[N+](=O)[O-])CC1 (stereo not drawn)	-22.4	0.411 µM [rising, full curve]	2.06 µM [rising, partial curve]
CC/C(C)=N/Nc1nc(-c2cc3cccc(OC)c3oc2=O)cs1	1.57	6.51 µM [falling, single point]	–

As entered above:
cell number change [%] with O=C(CSc1nc2ccccc2c(=O)[nH]1)Nc1ccccc1C(F)(F)F is entered as 5.01
AC50 [1] with O=C1NC(=O)/C(=C\c2ccccc2Oc2ccc(F)c(F)c2)S1 is entered as 2.59 µM [falling, single point]
cell number change [%] with COC(=O)c1c(NC(=O)c2nc3nc(C)cc(C(F)F)n3n2)sc2c1CCC2 is entered as 0.909

— PubChem BioAssay AID2685 (National Center for Advancing Translational Sciences (NCATS), 2010)
